The record followed here is patent US20210093714A1, “Combination and method for inhibiting the cancer cells” (NATIONAL TAIWAN UNIVERSITY, priority 2013, published 2021).

For this assay, the target named is Epidermal growth factor receptor (EGFR) (human) (UniProt P00533). The experiment in a line: FACS and western blot, A549 cells, rCT 100 ng/mL (FIG. 2G). In general terms: Immunoblotting shows a protein as a band on a membrane.

These are yes or no findings as the source states them, for the method shown. Some results given as binding are weak or reduced against the parent protein; the word gives no strength.

B1: CT domain of CCN2 (carboxyl-terminal cystine knot domain) (ligand, human, UniProt P29279 252-349, looked up)
chain: KGKKCIRTPKISKPIKFELSGCTSMKTYRAKFCGVCTDGRCCTPHRTTTLPVEFKCPDGEVMKKNMMFIKTCACHYNCPGDNDIFESLYYRKMYGDMA
B1: the binding result was “binds”.
